Laboratory results: PubChem BioAssay AID1259306 (Sanger Institute, 2017)
Purpose: 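Kinases needed for viability and knock-downs that synergise with BYL719, cetuximab or trametinib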 (primary screen). Cell system: human SNU-C5 colorectal cancer cells. Reagents: siRNA pool against human genes. Treatment: DMSO vehicle alone, or one anchor drug: BYL719 at 1 µM, cetuximab at 5 µg/ml or trametinib at 10 nM, given 24 h into the assay. Detection: 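Viability versus non-targeting pool averaged across replicates, given as fraction and robust z-score, and synergy scores for BYL719, cetuximab or trametinib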. Direction: robust z-score, knock-down alone and viability, knock-down alone: higher = more viable cells. Rule for the call: 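Essential if knock-down without drug gives a robust z-score under -3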. Meaning of the calls: active = essential (knock-down alone); inactive = no change alone.
The deposit covers 794 reagents; below is a random part of them. Over the whole deposit, 11 (1.4%) are marked active. 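Calls reflect knock-down alone; synergy scores play no part, so knock-downs synergising with a drug can be called no change.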 Unmarked entries are inactive. Viability is capped at 1. Further read-outs or replicates are left out here. The record does not give: the amount of reagent, the time to read-out.

RPS6KB1 (ribosomal protein S6 kinase B1)
- robust z-score, knock-down alone: 0.801
- viability, knock-down alone: 0.974

CASP8 (caspase 8)
- robust z-score, knock-down alone: 0.989
- viability, knock-down alone: 1

STK35 (serine/threonine kinase 35)
- robust z-score, knock-down alone: 0.321
- viability, knock-down alone: 0.908

CRIM1 (cysteine rich transmembrane BMP regulator 1)
- robust z-score, knock-down alone: 0.323
- viability, knock-down alone: 0.908

CDKL2 (cyclin dependent kinase like 2)
- robust z-score, knock-down alone: -2.06
- viability, knock-down alone: 0.58

PRKD1 (protein kinase D1)
- robust z-score, knock-down alone: 0.931
- viability, knock-down alone: 0.992

PIK3C2A
- robust z-score, knock-down alone: -3.06 (active)
- viability, knock-down alone: 0.442

RFK (riboflavin kinase)
- robust z-score, knock-down alone: 0.989
- viability, knock-down alone: 1

PRPS1L1 (phosphoribosyl pyrophosphate synthetase 1 like 1)
- robust z-score, knock-down alone: 0.0416
- viability, knock-down alone: 0.869

TYK2 (tyrosine kinase 2)
- robust z-score, knock-down alone: 0.08
- viability, knock-down alone: 0.875

FER (FER tyrosine kinase)
- robust z-score, knock-down alone: 0.989
- viability, knock-down alone: 1

TGFBR2 (transforming growth factor beta receptor 2)
- robust z-score, knock-down alone: 0.0765
- viability, knock-down alone: 0.874

ITPKA (inositol-trisphosphate 3-kinase A)
- robust z-score, knock-down alone: 0.0859
- viability, knock-down alone: 0.876

MAGI3
- robust z-score, knock-down alone: 0.989
- viability, knock-down alone: 1

MST1R (macrophage stimulating 1 receptor)
- robust z-score, knock-down alone: 0.989
- viability, knock-down alone: 1

COASY (Coenzyme A synthase)
- robust z-score, knock-down alone: -3.59 (active)
- viability, knock-down alone: 0.369

RAF1 (Raf-1 proto-oncogene, serine/threonine kinase)
- robust z-score, knock-down alone: 0.989
- viability, knock-down alone: 1

FGFR1 (fibroblast growth factor receptor 1)
- robust z-score, knock-down alone: 0.989
- viability, knock-down alone: 1

PRKACB (protein kinase cAMP-activated catalytic subunit beta)
- robust z-score, knock-down alone: 0.695
- viability, knock-down alone: 0.959

PDK1 (pyruvate dehydrogenase kinase 1)
- robust z-score, knock-down alone: -0.0381
- viability, knock-down alone: 0.858

CDK17 (cyclin dependent kinase 17)
- robust z-score, knock-down alone: 0.371
- viability, knock-down alone: 0.915

SIK2 (salt inducible kinase 2)
- robust z-score, knock-down alone: -1.29
- viability, knock-down alone: 0.686

MAP3K7 (mitogen-activated protein kinase kinase kinase 7)
- robust z-score, knock-down alone: -0.296
- viability, knock-down alone: 0.823

CDK18 (cyclin dependent kinase 18)
- robust z-score, knock-down alone: -2.45
- viability, knock-down alone: 0.526

TP53RK (TP53 regulating kinase)
- robust z-score, knock-down alone: 0.989
- viability, knock-down alone: 1

CAMK2G (calcium/calmodulin dependent protein kinase II gamma)
- robust z-score, knock-down alone: -2.78
- viability, knock-down alone: 0.481

STRADB (STE20 related adaptor beta)
- robust z-score, knock-down alone: -1.17
- viability, knock-down alone: 0.702

DDR1 (discoidin domain receptor tyrosine kinase 1)
- robust z-score, knock-down alone: 0.841
- viability, knock-down alone: 0.98
